Source: PubChem BioAssay AID1259405 (NCATS, 2018)
Aim: 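Silenced genes that increase secreted GFP made by CHO cells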 (primary screen). System: Chinese hamster CHO-K1 ovary cells with stable secreted eGFP expression. Knock-down reagent: single siRNA against mouse genes, 0.8 pmol siRNA per well (2 µl of 400 nM stock). Time to read-out: 3 days. Read-out: 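Percent of the per-plate non-targeting control median for intracellular GFP per well by laser scanning cytometry and for cell viability by ATP luminescence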. Direction: GFP, % of control: higher = more GFP per well, higher productivity; viability (ATP), % of control: higher = more viable cells (more ATP). Hit rule: 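a knock-down is called active if GFP reaches 120% or more of non-targeting control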.
This is an unselected part of about 50,000 reagents tested. Of all reagents, about 4,000 (8%) are marked active. 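Mouse siRNA library applied to hamster cells; one well for each siRNA.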 Reagents against one gene are numbered here.

| gene | reagent | GFP, % of control | viability (ATP), % of control | Call |
| --- | --- | --- | --- | --- |
| Iws1 (IWS1, SUPT6 interacting protein) | 1 | 29.4 | 24.1 | inactive |
| Iws1 (IWS1, SUPT6 interacting protein) | 2 | 103 | 137 | inactive |
| Iws1 (IWS1, SUPT6 interacting protein) | 3 | 78.3 | 57.5 | inactive |
| Zfp352 (zinc finger protein 352) | 1 | 86.2 | 53.8 | inactive |
| Zfp352 (zinc finger protein 352) | 2 | 75.5 | 87.6 | inactive |
| Zfp352 (zinc finger protein 352) | 3 | 58.2 | 75.5 | inactive |
| Sec11c (SEC11 homolog C, signal peptidase complex subunit) | 1 | 78.3 | 85.3 | inactive |
| Sec11c (SEC11 homolog C, signal peptidase complex subunit) | 2 | 58.2 | 76.4 | inactive |
| Sec11c (SEC11 homolog C, signal peptidase complex subunit) | 3 | 92 | 80.9 | inactive |
| Eif1 (eukaryotic translation initiation factor 1) | 1 | 62.8 | 76.1 | inactive |
| Eif1 (eukaryotic translation initiation factor 1) | 2 | 86.8 | 114 | inactive |
| Eif1 (eukaryotic translation initiation factor 1) | 3 | 102 | 95.8 | inactive |
| Macrod2 (mono-ADP ribosylhydrolase 2) | 1 | 69.8 | 76.1 | inactive |
| Macrod2 (mono-ADP ribosylhydrolase 2) | 2 | 52.2 | 64.9 | inactive |
| Macrod2 (mono-ADP ribosylhydrolase 2) | 3 | 74.9 | 81.2 | inactive |
| Impdh2 (inosine monophosphate dehydrogenase 2) | 1 | 59.4 | 51.9 | inactive |
| Impdh2 (inosine monophosphate dehydrogenase 2) | 2 | 80.4 | 108 | inactive |
| Impdh2 (inosine monophosphate dehydrogenase 2) | 3 | 60.8 | 81.4 | inactive |
| Nlgn2 (neuroligin 2) | 1 | 89 | 77.3 | inactive |
| Nlgn2 (neuroligin 2) | 2 | 91.6 | 81.7 | inactive |
| Nlgn2 (neuroligin 2) | 3 | 100 | 116 | inactive |
| Tbc1d15 (TBC1 domain family, member 15) | 1 | 89.4 | 80.4 | inactive |
| Tbc1d15 (TBC1 domain family, member 15) | 2 | 111 | 89.6 | inactive |
| Tbc1d15 (TBC1 domain family, member 15) | 3 | 70.2 | 64.5 | inactive |

Continued, starting with the last 8 of the part before.
| gene | reagent | GFP, % of control | viability (ATP), % of control | Call |
| --- | --- | --- | --- | --- |
| Impdh2 (inosine monophosphate dehydrogenase 2) | 2 | 80.4 | 108 | inactive |
| Impdh2 (inosine monophosphate dehydrogenase 2) | 3 | 60.8 | 81.4 | inactive |
| Nlgn2 (neuroligin 2) | 1 | 89 | 77.3 | inactive |
| Nlgn2 (neuroligin 2) | 2 | 91.6 | 81.7 | inactive |
| Nlgn2 (neuroligin 2) | 3 | 100 | 116 | inactive |
| Tbc1d15 (TBC1 domain family, member 15) | 1 | 89.4 | 80.4 | inactive |
| Tbc1d15 (TBC1 domain family, member 15) | 2 | 111 | 89.6 | inactive |
| Tbc1d15 (TBC1 domain family, member 15) | 3 | 70.2 | 64.5 | inactive |
| Gsdmd (gasdermin D) | 1 | 0 | 316 | inactive |
| Gsdmd (gasdermin D) | 2 | 32.9 | 27.5 | inactive |
| Gsdmd (gasdermin D) | 3 | 73.3 | 61.6 | inactive |
| Cdc14b (CDC14 cell division cycle 14B) | 1 | 98.8 | 92.6 | inactive |
| Cdc14b (CDC14 cell division cycle 14B) | 2 | 101 | 83.9 | inactive |
| Cdc14b (CDC14 cell division cycle 14B) | 3 | 74.9 | 70.2 | inactive |
| Bcl3 (B cell leukemia/lymphoma 3) | 1 | 74.7 | 76.4 | inactive |
| Bcl3 (B cell leukemia/lymphoma 3) | 2 | 79.5 | 82.5 | inactive |
| Bcl3 (B cell leukemia/lymphoma 3) | 3 | 92.5 | 109 | inactive |
| Spink4 (serine peptidase inhibitor, Kazal type 4) | 1 | 67.4 | 89.8 | inactive |
| Spink4 (serine peptidase inhibitor, Kazal type 4) | 2 | 67.8 | 81.3 | inactive |
| Spink4 (serine peptidase inhibitor, Kazal type 4) | 3 | 98.8 | 110 | inactive |
| Atl3 (atlastin GTPase 3) | 1 | 139 | 93.3 | active |
| Atl3 (atlastin GTPase 3) | 2 | 57 | 71.8 | inactive |
| Atl3 (atlastin GTPase 3) | 3 | 69.9 | 68.7 | inactive |
| Cimip7 (ciliary microtubule inner protein 7) | 1 | 67.6 | 63 | inactive |
| Cimip7 (ciliary microtubule inner protein 7) | 2 | 54.9 | 92.6 | inactive |
| Cimip7 (ciliary microtubule inner protein 7) | 3 | 96.8 | 92.4 | inactive |
| Or6d14 (olfactory receptor family 6 subfamily D member 14) | 1 | 103 | 70.4 | inactive |
| Or6d14 (olfactory receptor family 6 subfamily D member 14) | 2 | 65.3 | 68.5 | inactive |
| Or6d14 (olfactory receptor family 6 subfamily D member 14) | 3 | 29.9 | 36.8 | inactive |
| Klhdc7a (kelch domain containing 7A) | 1 | 44.8 | 35.5 | inactive |
| Klhdc7a (kelch domain containing 7A) | 2 | 71.6 | 72.5 | inactive |
| Klhdc7a (kelch domain containing 7A) | 3 | 58.8 | 66.9 | inactive |
| Adgrf1 (adhesion G protein-coupled receptor F1) | 1 | 44.7 | 66.8 | inactive |
| Adgrf1 (adhesion G protein-coupled receptor F1) | 2 | 74.5 | 71.8 | inactive |
| Adgrf1 (adhesion G protein-coupled receptor F1) | 3 | 89 | 83.6 | inactive |
| Adra2a (adrenergic receptor, alpha 2a) | 1 | 73.7 | 74.7 | inactive |
| Adra2a (adrenergic receptor, alpha 2a) | 2 | 79.2 | 95.4 | inactive |
| Adra2a (adrenergic receptor, alpha 2a) | 3 | 76.7 | 71.3 | inactive |
| Zfp638 (zinc finger protein 638) | 1 | 136 | 58.4 | active |
| Zfp638 (zinc finger protein 638) | 2 | 75.9 | 74.4 | inactive |
| Zfp638 (zinc finger protein 638) | 3 | 51.2 | 41.3 | inactive |
